The values that follow come from paper PMC8938449.

Test [1] deals with Flag-Par-1 (Bombyx). Description: co-IP; Flag-Par-1 in BmN4 cytoplasmic lysates without mitochondrial materials; blot for Siwi; Flag-LacZ as negative control.
The target of test [2] is Flag-Par-1 (Bombyx). Description: co-IP; immunoprecipitation and western blotting of WT Siwi or the Siwi 9RK mutant with Par-1 (Fig. 3f); bait and tags not stated.

Results are given in words; binding and its absence hold for the method and conditions named. In cells and extracts the contact can be indirect. A result given as binding can be weak or reduced; the word gives no strength.

B1: Siwi, endogenous (protein, UniProt A8D8P8 1-899)
chain: MSEPRGRGRARGRAGRGGDGGGPAPRRPGEQAGPSQQSMPPGPRPQPPSGWGPQSSVPPVRAGVPTPTAQAGRASHRVTPTTHEHPGDIDVQQRMQKLELGPHSSGGGDASSVVGRGSRRGGGRVLPETISILRTRPEAVTSKKGTSGTPLDLLANYFTVETTPKWGLYQYHVDISPEEDSTGVRKALMRVHSKTLGGYLFDGTVLYTVNRLHPDPMELYSDRKTDNERMRILIKLTCEVSPGDYHYIQIFNIIIRKCFNLLKLQLMGRDYFDPEAKIDIPEFKLQIWPGYKTTINQYEDRLLLVTEIAHKVLRMDTVLQMLSEYAATKGNNYKKIFLEDVVGKIVMTDYNKRTYRVDDVAWNVSPKSTFKMRDENITYIEYYYKKYNLRIQDPGQPLLISRSKPREIRAGLPELIYLVPELCRQTGLSDEMRANFKLMRSLDVHTKIGPDKRIEKLNNFNRRFTSTPEVVEELATWSLKLSKELVKIKGRQLPPENIIQANNVKYPAGDTTEGWTRDMRSKHLLAIAQLNSWVVITPERQRRDTESFIDLIIKTGGGVGFRMRSPDLVVIRHDGPIEYANMCEEVIARKNPALILCVLARNYADRYEAIKKKCTVDRAVPTQVVCARNMSSKSAMSIATKVAIQINCKLGGSPWTVDIPLPSLMVVGYDVCHDTRSKEKSFGAFVATLDKQMTQYYSIVNAHTSGEELSSHMGFNIASAVKKFREKNGTYPARIFIYRDGVGDGQIPYVHSHEVAEIKKKLAEIYAGVEIKLAFIIVSKRINTRIFVQRGRSGENPRPGTVIDDVVTLPERYDFYLVSQNVREGTIAPTSYNVIEDTTGLNPDRIQRLTYKLTHLYFNCSSQVRVPSVCQYAHKLAFLAANSLHNQPHYSLNETLYFL
For B1, in test [1], the binding result is “binds”.

B2: WT Siwi, expressed in BmN4 cells (protein, UniProt A8D8P8 1-899)
chain: MSEPRGRGRARGRAGRGGDGGGPAPRRPGEQAGPSQQSMPPGPRPQPPSGWGPQSSVPPVRAGVPTPTAQAGRASHRVTPTTHEHPGDIDVQQRMQKLELGPHSSGGGDASSVVGRGSRRGGGRVLPETISILRTRPEAVTSKKGTSGTPLDLLANYFTVETTPKWGLYQYHVDISPEEDSTGVRKALMRVHSKTLGGYLFDGTVLYTVNRLHPDPMELYSDRKTDNERMRILIKLTCEVSPGDYHYIQIFNIIIRKCFNLLKLQLMGRDYFDPEAKIDIPEFKLQIWPGYKTTINQYEDRLLLVTEIAHKVLRMDTVLQMLSEYAATKGNNYKKIFLEDVVGKIVMTDYNKRTYRVDDVAWNVSPKSTFKMRDENITYIEYYYKKYNLRIQDPGQPLLISRSKPREIRAGLPELIYLVPELCRQTGLSDEMRANFKLMRSLDVHTKIGPDKRIEKLNNFNRRFTSTPEVVEELATWSLKLSKELVKIKGRQLPPENIIQANNVKYPAGDTTEGWTRDMRSKHLLAIAQLNSWVVITPERQRRDTESFIDLIIKTGGGVGFRMRSPDLVVIRHDGPIEYANMCEEVIARKNPALILCVLARNYADRYEAIKKKCTVDRAVPTQVVCARNMSSKSAMSIATKVAIQINCKLGGSPWTVDIPLPSLMVVGYDVCHDTRSKEKSFGAFVATLDKQMTQYYSIVNAHTSGEELSSHMGFNIASAVKKFREKNGTYPARIFIYRDGVGDGQIPYVHSHEVAEIKKKLAEIYAGVEIKLAFIIVSKRINTRIFVQRGRSGENPRPGTVIDDVVTLPERYDFYLVSQNVREGTIAPTSYNVIEDTTGLNPDRIQRLTYKLTHLYFNCSSQVRVPSVCQYAHKLAFLAANSLHNQPHYSLNETLYFL
Turning to B2, the binding entry in test [2] is listed as “binds”.
